This assay deals with T1, CYP11A1 (cholesterol side-chain cleavage enzyme) (human (endogenous in AGS and HGC-27)) (UniProt P05108).
T1 sequence: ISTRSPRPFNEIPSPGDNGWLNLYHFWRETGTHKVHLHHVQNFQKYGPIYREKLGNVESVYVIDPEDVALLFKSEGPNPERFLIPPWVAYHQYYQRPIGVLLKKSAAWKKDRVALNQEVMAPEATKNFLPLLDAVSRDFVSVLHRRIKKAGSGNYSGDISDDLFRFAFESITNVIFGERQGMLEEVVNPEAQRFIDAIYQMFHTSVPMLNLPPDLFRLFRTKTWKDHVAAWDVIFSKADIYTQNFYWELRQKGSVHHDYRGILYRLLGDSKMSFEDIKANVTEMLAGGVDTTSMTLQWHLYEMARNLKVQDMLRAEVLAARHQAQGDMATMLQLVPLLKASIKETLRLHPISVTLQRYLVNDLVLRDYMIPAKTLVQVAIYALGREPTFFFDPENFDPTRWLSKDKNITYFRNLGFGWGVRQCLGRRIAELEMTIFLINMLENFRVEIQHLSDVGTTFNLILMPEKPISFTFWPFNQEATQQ
The assay is described as follows: co-IP; lysates (NP-40 lysis buffer) of AGS or HGC-27 cells infected with H. pylori strains; immunoprecipitated in both directions with anti-CagA or anti-CYP11A1, protein A/G PLUS-agarose, overnight 4°C; wash 0.08% NP-40, 150 mM NaCl, 50 mM Tris-HCl pH 8.0, 5 mM MgCl2; Western blot. In general terms: In western blotting, separated proteins are transferred to a membrane and probed.

By UniProt entry, the sequences of proteins in these tests, tags left out.
UniProt P80200: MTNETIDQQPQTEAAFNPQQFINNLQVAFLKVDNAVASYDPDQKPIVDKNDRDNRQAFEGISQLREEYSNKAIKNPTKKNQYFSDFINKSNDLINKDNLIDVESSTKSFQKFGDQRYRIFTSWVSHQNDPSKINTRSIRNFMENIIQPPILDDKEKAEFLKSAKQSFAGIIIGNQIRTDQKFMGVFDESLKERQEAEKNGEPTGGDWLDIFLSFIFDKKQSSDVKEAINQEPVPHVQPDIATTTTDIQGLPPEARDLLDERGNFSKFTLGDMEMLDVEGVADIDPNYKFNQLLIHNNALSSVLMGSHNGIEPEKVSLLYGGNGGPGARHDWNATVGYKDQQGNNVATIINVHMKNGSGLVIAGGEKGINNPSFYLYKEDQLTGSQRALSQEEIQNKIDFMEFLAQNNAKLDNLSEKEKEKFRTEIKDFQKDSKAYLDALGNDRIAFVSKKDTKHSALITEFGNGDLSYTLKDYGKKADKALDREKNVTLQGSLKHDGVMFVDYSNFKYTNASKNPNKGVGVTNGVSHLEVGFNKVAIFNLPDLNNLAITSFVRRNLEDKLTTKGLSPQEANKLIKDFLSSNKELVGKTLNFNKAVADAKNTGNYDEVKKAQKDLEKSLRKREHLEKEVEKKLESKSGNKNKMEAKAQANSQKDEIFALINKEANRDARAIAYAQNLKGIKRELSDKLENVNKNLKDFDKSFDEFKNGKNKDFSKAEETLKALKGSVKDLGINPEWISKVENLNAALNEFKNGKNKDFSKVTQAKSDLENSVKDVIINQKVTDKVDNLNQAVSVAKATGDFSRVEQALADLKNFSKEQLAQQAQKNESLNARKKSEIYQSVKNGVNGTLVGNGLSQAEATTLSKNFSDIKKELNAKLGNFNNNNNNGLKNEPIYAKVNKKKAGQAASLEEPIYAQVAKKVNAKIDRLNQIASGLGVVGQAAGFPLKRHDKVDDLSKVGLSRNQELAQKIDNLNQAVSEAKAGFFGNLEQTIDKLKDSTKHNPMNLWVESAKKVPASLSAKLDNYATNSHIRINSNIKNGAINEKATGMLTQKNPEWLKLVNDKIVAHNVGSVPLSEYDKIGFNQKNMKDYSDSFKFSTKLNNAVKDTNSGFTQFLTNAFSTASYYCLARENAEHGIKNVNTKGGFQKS

Results are given in words; binding and its absence hold for the method and conditions named. Binding seen in cells or lysates may run through a third protein. Some results given as binding are weak or reduced against the parent protein; the word gives no strength.

For “Cytotoxin-associated gene A (CagA) of Helicobacter pylori strain NCTC 11637 (from UniProt P80200 1-1147)”, the binding entry is “binds”.

The record behind these values is publication PMC11302876.
